Measured values taken from the supplement of paper PMC10849652.
The other results are listed elsewhere or left out.

Protein sequences, listed by entry. Tags and fused reporters are not part of them. Lines headed by an entry give the natural chain unless they say otherwise; changes in a name come on top.
UniProt Q15032: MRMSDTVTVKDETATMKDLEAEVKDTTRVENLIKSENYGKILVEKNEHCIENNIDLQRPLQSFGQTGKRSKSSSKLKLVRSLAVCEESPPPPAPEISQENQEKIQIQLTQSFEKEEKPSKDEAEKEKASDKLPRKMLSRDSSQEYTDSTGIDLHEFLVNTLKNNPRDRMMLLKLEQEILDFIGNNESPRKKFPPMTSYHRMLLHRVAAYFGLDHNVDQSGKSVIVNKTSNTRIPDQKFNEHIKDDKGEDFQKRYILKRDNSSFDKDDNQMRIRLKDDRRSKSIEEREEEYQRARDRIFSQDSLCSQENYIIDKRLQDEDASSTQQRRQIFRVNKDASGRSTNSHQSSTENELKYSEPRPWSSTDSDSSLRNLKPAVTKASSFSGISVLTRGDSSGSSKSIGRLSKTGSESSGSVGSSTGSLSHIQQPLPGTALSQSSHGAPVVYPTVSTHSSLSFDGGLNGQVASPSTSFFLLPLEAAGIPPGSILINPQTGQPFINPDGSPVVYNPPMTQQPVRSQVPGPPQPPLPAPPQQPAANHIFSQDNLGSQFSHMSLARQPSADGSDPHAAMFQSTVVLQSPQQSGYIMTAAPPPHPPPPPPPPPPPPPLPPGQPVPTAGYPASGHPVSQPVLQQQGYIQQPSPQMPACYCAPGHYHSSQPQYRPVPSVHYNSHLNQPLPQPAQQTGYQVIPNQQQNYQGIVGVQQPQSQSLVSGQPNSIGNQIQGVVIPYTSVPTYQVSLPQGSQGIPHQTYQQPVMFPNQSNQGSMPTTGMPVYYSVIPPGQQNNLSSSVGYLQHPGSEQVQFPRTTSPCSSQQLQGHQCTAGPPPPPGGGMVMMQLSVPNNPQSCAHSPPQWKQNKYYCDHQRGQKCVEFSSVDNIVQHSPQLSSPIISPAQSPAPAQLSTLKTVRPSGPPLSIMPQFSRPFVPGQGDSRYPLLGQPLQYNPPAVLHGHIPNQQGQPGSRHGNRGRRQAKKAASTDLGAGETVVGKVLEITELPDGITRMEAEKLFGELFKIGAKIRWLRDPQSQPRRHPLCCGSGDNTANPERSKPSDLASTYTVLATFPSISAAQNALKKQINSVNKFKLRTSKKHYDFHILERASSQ
UniProt O75771: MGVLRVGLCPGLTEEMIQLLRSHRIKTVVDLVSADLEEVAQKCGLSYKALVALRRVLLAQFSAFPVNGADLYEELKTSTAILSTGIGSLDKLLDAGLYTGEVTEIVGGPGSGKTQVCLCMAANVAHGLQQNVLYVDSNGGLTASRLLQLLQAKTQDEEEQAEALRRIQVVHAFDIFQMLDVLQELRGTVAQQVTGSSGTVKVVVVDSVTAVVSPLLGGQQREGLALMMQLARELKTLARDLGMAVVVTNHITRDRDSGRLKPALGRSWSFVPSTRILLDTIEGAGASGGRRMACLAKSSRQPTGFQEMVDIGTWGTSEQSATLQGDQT
UniProt Q9H082: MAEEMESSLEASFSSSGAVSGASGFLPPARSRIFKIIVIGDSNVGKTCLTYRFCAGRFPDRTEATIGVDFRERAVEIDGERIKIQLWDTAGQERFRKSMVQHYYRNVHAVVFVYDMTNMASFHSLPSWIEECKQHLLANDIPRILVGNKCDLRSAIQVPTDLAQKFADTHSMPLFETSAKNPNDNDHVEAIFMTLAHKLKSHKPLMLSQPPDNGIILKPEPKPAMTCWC
UniProt Q96S21: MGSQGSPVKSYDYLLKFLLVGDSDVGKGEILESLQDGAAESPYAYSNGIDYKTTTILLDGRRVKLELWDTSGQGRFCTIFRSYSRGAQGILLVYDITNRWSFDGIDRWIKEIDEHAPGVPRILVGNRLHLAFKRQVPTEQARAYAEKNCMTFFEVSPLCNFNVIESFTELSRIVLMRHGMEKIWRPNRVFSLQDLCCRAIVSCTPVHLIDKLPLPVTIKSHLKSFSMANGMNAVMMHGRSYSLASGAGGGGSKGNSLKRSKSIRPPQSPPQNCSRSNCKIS
UniProt Q96B01: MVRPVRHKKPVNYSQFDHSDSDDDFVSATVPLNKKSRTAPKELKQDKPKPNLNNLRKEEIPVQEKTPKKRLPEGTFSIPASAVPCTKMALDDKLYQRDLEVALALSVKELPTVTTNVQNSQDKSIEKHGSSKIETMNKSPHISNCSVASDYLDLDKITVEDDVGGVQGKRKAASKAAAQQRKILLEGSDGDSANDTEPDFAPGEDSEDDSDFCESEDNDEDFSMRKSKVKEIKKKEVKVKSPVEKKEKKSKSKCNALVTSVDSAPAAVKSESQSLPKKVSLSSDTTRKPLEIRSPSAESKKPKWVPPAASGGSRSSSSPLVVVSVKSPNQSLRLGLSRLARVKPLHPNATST
UniProt Q9H2M9: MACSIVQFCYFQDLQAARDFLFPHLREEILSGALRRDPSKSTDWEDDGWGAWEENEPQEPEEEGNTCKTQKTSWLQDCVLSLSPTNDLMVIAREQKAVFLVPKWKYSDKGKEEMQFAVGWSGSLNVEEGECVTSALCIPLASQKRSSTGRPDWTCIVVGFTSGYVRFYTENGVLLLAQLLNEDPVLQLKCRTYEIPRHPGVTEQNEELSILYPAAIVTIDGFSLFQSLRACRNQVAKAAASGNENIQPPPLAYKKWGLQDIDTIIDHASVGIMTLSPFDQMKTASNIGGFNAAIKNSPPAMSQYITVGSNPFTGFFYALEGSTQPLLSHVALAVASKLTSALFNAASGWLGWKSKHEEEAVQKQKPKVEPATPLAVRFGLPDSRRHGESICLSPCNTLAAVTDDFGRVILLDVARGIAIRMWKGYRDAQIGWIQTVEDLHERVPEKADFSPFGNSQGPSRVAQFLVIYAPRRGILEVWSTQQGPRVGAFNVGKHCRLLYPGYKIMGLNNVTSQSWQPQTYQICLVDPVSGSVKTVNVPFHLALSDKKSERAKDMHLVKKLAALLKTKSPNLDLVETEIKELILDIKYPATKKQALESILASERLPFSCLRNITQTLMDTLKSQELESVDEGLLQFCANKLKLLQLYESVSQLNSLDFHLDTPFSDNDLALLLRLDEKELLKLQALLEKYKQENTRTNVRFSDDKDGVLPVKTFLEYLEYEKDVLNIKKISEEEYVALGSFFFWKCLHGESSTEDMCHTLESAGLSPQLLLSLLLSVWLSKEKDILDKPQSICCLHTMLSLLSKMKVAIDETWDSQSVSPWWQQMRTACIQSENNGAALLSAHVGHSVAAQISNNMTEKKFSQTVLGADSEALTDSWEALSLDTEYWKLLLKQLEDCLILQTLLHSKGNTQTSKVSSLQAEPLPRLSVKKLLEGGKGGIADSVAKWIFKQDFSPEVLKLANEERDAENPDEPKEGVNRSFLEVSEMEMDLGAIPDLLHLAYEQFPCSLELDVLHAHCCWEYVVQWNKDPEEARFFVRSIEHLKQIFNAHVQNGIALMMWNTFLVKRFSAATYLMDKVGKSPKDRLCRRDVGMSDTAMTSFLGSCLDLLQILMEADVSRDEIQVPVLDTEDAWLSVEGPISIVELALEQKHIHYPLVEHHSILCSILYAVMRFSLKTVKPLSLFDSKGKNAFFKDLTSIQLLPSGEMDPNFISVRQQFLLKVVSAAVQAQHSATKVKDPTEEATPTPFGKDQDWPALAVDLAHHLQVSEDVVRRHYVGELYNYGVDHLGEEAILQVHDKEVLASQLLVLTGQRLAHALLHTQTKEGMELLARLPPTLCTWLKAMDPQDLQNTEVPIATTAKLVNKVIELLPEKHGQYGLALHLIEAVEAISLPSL
UniProt O60216: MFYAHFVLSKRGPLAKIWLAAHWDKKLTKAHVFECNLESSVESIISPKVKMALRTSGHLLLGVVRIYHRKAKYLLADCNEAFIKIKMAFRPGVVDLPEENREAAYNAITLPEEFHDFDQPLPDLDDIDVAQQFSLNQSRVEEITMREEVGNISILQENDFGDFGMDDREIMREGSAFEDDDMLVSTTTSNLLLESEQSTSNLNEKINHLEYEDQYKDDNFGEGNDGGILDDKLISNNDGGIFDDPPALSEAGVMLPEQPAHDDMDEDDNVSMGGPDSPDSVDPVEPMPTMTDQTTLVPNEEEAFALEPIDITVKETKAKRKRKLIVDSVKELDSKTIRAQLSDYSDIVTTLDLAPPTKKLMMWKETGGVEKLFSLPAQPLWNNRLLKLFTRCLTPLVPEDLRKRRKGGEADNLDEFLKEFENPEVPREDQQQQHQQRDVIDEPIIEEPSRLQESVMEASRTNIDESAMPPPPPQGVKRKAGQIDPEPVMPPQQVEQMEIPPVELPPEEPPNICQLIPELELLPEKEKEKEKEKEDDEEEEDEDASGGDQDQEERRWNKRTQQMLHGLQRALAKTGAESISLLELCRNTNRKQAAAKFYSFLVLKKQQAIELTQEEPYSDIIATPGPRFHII
UniProt P51159: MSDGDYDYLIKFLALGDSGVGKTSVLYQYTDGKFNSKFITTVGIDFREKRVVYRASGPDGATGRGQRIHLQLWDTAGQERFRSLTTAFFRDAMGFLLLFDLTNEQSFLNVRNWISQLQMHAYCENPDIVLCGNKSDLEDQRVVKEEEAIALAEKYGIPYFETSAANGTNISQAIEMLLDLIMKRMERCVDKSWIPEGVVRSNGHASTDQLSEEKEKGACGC
UniProt Q9ULZ3, whole entry, looked up: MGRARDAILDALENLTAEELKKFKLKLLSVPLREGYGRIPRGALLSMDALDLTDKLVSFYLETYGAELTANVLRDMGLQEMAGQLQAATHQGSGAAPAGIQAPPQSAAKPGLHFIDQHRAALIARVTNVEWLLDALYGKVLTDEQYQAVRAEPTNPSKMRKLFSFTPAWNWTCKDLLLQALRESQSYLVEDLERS
UniProt Q15286: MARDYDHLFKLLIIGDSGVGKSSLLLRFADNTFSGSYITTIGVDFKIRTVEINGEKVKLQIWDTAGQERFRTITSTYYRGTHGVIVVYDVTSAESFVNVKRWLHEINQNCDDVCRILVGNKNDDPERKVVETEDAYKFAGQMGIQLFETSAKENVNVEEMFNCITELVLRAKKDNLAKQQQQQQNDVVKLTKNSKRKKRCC
UniProt Q15771: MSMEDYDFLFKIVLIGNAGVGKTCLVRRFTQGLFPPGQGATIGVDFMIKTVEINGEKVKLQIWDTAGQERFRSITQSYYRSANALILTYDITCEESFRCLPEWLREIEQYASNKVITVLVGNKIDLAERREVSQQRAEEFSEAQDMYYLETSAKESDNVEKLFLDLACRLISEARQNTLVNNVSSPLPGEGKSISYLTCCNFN
UniProt O14966: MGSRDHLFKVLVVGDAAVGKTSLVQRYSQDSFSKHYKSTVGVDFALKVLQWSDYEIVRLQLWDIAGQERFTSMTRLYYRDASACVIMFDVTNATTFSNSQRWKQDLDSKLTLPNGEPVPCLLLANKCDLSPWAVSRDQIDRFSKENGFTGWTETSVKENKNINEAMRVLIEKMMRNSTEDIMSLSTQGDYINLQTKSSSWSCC
UniProt Q96DA2: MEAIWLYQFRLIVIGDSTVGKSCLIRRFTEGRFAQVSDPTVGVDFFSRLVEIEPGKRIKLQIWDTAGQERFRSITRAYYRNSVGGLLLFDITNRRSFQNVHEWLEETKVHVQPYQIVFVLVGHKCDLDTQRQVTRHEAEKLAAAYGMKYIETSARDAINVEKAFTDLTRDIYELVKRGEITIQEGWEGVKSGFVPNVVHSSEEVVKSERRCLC
UniProt O00391: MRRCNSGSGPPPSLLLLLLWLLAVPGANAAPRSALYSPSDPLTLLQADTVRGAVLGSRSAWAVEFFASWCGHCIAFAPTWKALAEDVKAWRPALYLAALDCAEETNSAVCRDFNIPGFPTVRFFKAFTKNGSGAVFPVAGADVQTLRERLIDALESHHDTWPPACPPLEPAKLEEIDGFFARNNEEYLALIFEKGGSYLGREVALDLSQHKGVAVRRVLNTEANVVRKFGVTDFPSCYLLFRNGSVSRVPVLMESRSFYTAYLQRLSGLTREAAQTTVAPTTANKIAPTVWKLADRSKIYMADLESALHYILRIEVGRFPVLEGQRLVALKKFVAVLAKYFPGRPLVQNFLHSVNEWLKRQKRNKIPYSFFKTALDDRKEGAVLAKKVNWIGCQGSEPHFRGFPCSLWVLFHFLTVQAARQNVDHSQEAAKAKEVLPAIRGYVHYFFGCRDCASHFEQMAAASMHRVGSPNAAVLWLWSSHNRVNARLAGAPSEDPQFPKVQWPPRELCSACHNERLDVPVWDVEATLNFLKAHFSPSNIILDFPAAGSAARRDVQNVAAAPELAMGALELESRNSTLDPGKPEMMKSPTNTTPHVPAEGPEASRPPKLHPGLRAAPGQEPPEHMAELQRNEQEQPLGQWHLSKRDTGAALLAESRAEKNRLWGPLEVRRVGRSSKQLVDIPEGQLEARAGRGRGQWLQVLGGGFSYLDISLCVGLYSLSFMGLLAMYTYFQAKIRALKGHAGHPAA

Assays:
Test in all cases: log2 fold change, soluble protein after heating vs DMSO (PISA); higher = thermal stabilisation; K562 lysate, 10 uM; active = over 0.2 and 3.5 SD of the protein, either way, in both replicates (recomputed)
ibrutinib = compound: C=CC(=O)N1CCC[C@@H](n2nc(-c3ccc(Oc4ccccc4)cc3)c3c(N)ncnc32)C1 [ibrutinib]
Summary of the method: (§1)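 Quantification was by TMTpro 16plex LC-MS/MS with equalised channel sums, applied to the supernatant after 21,000xg for 90 min. Samples were crude K562 extract at 1 mg/mL protein in PBS pH 7.4 with 1 mM MgCl2, treated with 10 μM compound for 30 min, heated for 3 min across 48°C-58°C, pooled and brought to 0.5% NP-40 at 4°C. Values are log-two fold changes in thermal stability relative to solvent controls, from duplicates.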

[1] = compound: CC(=O)c1cnc2ccc(-c3cc(Cl)c(O)c(Cl)c3)nc2c1N[C@H]1CC[C@H](CN(C)C)CC1
Summary of the method: as §1

ralimetinib = compound: CC(C)(C)Cn1c(N)nc2ccc(-c3[nH]c(C(C)(C)C)nc3-c3ccc(F)cc3)nc21 [ralimetinib]
Summary of the method: as §1

[2] = compound: CC(C)(O)CC(=O)NCCn1ccc2ncnc(Nc3ccc(Oc4cccc(C(F)(F)F)c4)c(Cl)c3)c21
Summary of the method: as §1

[3] = compound: CC(C)C1=C2N=C(C=C(N2N=C1)NCC3=CC=CC=C3)NCCCCCCN
Summary of the method: as §1

[4] = compound: CC1=C(C2=C(C=C1)C(=O)C3=CC=CC=C3N2CCCN)C
Summary of the method: as §1

[5] = compound: CC1=C(C=C(C=C1)NC(=O)C2=CC(=CC=C2)C(C)(C)C#N)NC3=CC4=C(C=C3)N=CN(C4=O)C
Summary of the method: as §1

[6] = compound: CC1=C(C=C(C=C1)NC(=O)C2=CC(=CC=C2)N(C)C)NC(=O)C3=CC=C(C=C3)O
Summary of the method: as §1

[7] = compound: CC1=CC=C(C=C1)SC2=C3C=C(SC3=CN=C2)C(=O)N
Summary of the method: as §1

vemurafenib = compound: CCCS(=O)(=O)Nc1ccc(F)c(C(=O)c2c[nH]c3ncc(-c4ccc(Cl)cc4)cc23)c1F [vemurafenib]
Summary of the method: as §1

[8] = compound: CCCS(=O)(=O)Nc1ccc(F)c(C(=O)c2c[nH]c3ncc(Cl)cc23)c1F
Summary of the method: as §1

barasertib = compound: CCN(CCCOc1ccc2c(Nc3cc(CC(=O)Nc4cccc(F)c4)[nH]n3)ncnc2c1)CCOP(=O)(O)O [barasertib]
Summary of the method: as §1

[9] = compound: CC[C@@H]1C(=O)N(C)c2cnc(Nc3ccc(C(=O)NC4CCN(C)CC4)cc3OC)nc2N1C1CCCC1
Summary of the method: as §1

volasertib = compound: CC[C@@H]1C(=O)N(C)c2cnc(Nc3ccc(C(=O)N[C@H]4CC[C@H](N5CCN(CC6CC6)CC5)CC4)cc3OC)nc2N1C(C)C [volasertib]
Summary of the method: as §1

[10] = compound: CCn1c(C(=O)N(C2CC2)C2CC2)cc2c3c(ncn3C)c(Nc3cc(C)n(C)n3)nc21
Summary of the method: as §1

[11] = compound: CCn1cc(-c2ccnc3[nH]c(-c4cccc(CN(C)C)c4)cc23)c(-c2ccc(NC(=O)N(C)C)cc2)n1
Summary of the method: as §1

[12] = compound: CN1CCC(CNc2ccc3ncc(-c4cccc(OC(F)(F)F)c4)n3n2)CC1
Summary of the method: as §1

saracatinib = compound: CN1CCN(CCOc2cc(OC3CCOCC3)c3c(Nc4c(Cl)ccc5c4OCO5)ncnc3c2)CC1 [saracatinib]
Summary of the method: as §1

sotrastaurin = compound: CN1CCN(c2nc(C3=C(c4c[nH]c5ccccc45)C(=O)NC3=O)c3ccccc3n2)CC1 [sotrastaurin]
Summary of the method: as §1

[13] = compound: CC1=C(C(CC(=O)N1)C2=CC=C(C=C2)C(F)(F)F)C(=O)NC3=C(C=C4C(=C3)C=NN4)F
Summary of the method: as §1

Row | Target | log2 fold change (ibrutinib) | log2 fold change [1] | log2 fold change (ralimetinib) | log2 fold change [2] | log2 fold change [3] | log2 fold change [4] | log2 fold change [5] | log2 fold change [6] | log2 fold change [7] | log2 fold change (vemurafenib) | log2 fold change [8] | log2 fold change (barasertib) | log2 fold change [9] | log2 fold change (volasertib) | log2 fold change [10] | log2 fold change [11] | log2 fold change [12] | log2 fold change (saracatinib) | log2 fold change (sotrastaurin) | log2 fold change [13]
1 | R3HDM1 isoform 3 (UniProt Q15032) | inactive: -0.002 | inactive: -0.134 | inactive: 0 | inactive: -0.067 | inactive: -0.025 | inactive: -0.002 | inactive: -0.05 | inactive: -0.014 | inactive: 0.013 | inactive: 0.114 | inactive: -0.118 | inactive: 0.106 | inactive: 0.059 | inactive: 0.024 | inactive: 0.041 | inactive: 0.219 | inactive: 0.052 | inactive: -0.037 | inactive: 0.064 | –
2 | RAD51D (UniProt O75771) | inactive: 0 | inactive: -0.09 | inactive: 0.273 | inactive: 0.107 | inactive: 0.006 | inactive: -0.001 | – | inactive: -0.171 | inactive: -0.046 | inactive: 0.012 | inactive: 0.088 | inactive: -0.069 | inactive: -0.149 | inactive: -0.106 | inactive: -0.033 | inactive: -0.039 | inactive: -0.049 | inactive: 0.031 | – | inactive: -0.022
3 | RAB33B (UniProt Q9H082) | inactive: 0.052 | inactive: 0.055 | inactive: 0.076 | inactive: -0.02 | inactive: 0.025 | inactive: -0.101 | – | inactive: 0.044 | inactive: 0.141 | inactive: -0.075 | inactive: 0.007 | inactive: -0.018 | inactive: -0.016 | inactive: 0.114 | inactive: -0.09 | inactive: 0.035 | inactive: 0.202 | inactive: -0.005 | – | inactive: 0.098
4 | RAP1B (UniProt F5GZG1) | inactive: 0.01 | inactive: -0.021 | – | – | inactive: 0.061 | inactive: 0.019 | inactive: -0.124 | – | inactive: 0.117 | inactive: 0.025 | inactive: -0.069 | inactive: 0.043 | inactive: -0.013 | inactive: -0.015 | – | inactive: 0.471 | inactive: 0.041 | inactive: 0.094 | inactive: -0.038 | inactive: 0.036
5 | RAB40C (UniProt Q96S21) | inactive: 0.021 | inactive: 0.002 | inactive: 0.098 | inactive: -0.007 | inactive: -0.099 | – | inactive: 0.042 | inactive: -0.016 | inactive: 0.04 | inactive: 0.061 | inactive: -0.141 | inactive: -0.028 | inactive: 0.122 | inactive: -0.12 | inactive: -0.116 | inactive: -0.049 | inactive: 0.099 | – | inactive: 0.091 | inactive: -0.005
6 | RAI14 isoform 2 (UniProt Q9P0K7) | inactive: -0.019 | inactive: -0.007 | inactive: -0.011 | inactive: -0.01 | inactive: -0.004 | inactive: -0.024 | inactive: 0.01 | inactive: 0.024 | inactive: 0.001 | inactive: 0.001 | inactive: 0.066 | inactive: 0.061 | inactive: -0.019 | inactive: 0.005 | inactive: 0 | inactive: 0.045 | inactive: -0.011 | inactive: 0.031 | inactive: 0.026 | inactive: 0.017
7 | RAD51AP1 (UniProt Q96B01) | inactive: 0.067 | inactive: 0.042 | inactive: -0.043 | inactive: -0.059 | inactive: -0.065 | inactive: -0.109 | inactive: 0.029 | inactive: 0.067 | inactive: 0.017 | – | inactive: 0.04 | inactive: -0.074 | inactive: 0.076 | inactive: 0.086 | inactive: -0.118 | inactive: -0.057 | inactive: 0.1 | inactive: 0.07 | inactive: 0.007 | inactive: -0.009
8 | RAB3GAP2 (UniProt Q9H2M9) | inactive: -0.019 | inactive: -0.021 | inactive: -0.005 | inactive: -0.024 | inactive: 0.007 | inactive: 0.019 | inactive: -0.019 | inactive: -0.001 | inactive: 0.006 | inactive: 0.006 | inactive: 0.019 | inactive: 0.03 | inactive: -0.047 | inactive: -0.051 | inactive: 0.033 | inactive: 0.026 | inactive: -0.084 | inactive: 0.012 | inactive: -0.003 | inactive: -0.006
9 | RAD21 (UniProt O60216) | inactive: -0.025 | inactive: -0.009 | inactive: 0.012 | inactive: 0.01 | inactive: -0.041 | inactive: -0.037 | inactive: 0.006 | inactive: 0.006 | inactive: -0.013 | inactive: -0.032 | inactive: 0.022 | inactive: 0.019 | inactive: 0.01 | inactive: -0.014 | inactive: 0.022 | inactive: -0.015 | inactive: 0.015 | inactive: 0.001 | inactive: -0.007 | inactive: -0.016
10 | RAB27A (UniProt P51159) | inactive: -0.011 | inactive: -0.035 | inactive: 0.074 | inactive: 0.033 | inactive: -0.054 | inactive: 0.047 | inactive: -0.057 | inactive: 0.006 | inactive: -0.026 | inactive: -0.037 | inactive: -0.024 | inactive: 0.012 | inactive: -0.056 | inactive: -0.082 | inactive: 0.034 | active: 0.679 | inactive: -0.048 | inactive: 0.021 | inactive: 0.001 | inactive: -0.044
11 | PYCARD isoform 2 (UniProt Q9ULZ3) | inactive: -0.194 | inactive: -0.167 | inactive: -0.047 | inactive: 0.146 | inactive: 0.123 | – | inactive: 0.057 | inactive: 0.012 | inactive: -0.243 | – | inactive: 0.039 | inactive: 0.316 | – | inactive: 0.025 | inactive: 0.071 | inactive: -0.082 | inactive: -0.025 | – | inactive: -0.054 | –
12 | RAB35 (UniProt Q15286) | inactive: 0.027 | inactive: -0.015 | inactive: -0.006 | inactive: 0.058 | inactive: -0.027 | inactive: -0.014 | inactive: -0.027 | inactive: -0.006 | inactive: -0.023 | inactive: -0.063 | inactive: -0.01 | inactive: 0.005 | inactive: 0.034 | inactive: -0.034 | inactive: 0.028 | inactive: -0.011 | inactive: 0.064 | inactive: -0.027 | inactive: -0.004 | inactive: 0.011
13 | RAB30 (UniProt Q15771) | inactive: 0.021 | – | – | – | inactive: -0.023 | inactive: -0.032 | inactive: -0.05 | – | – | inactive: -0.04 | – | inactive: 0.009 | inactive: -0.127 | – | – | inactive: -0.074 | inactive: 0.129 | inactive: 0.016 | inactive: 0.075 | –
14 | RAB29 (UniProt O14966) | – | – | inactive: -0.052 | inactive: 0.083 | inactive: 0.066 | inactive: -0.119 | – | inactive: -0.071 | – | – | – | – | – | – | inactive: -0.097 | inactive: 0.195 | inactive: 0.001 | inactive: -0.124 | – | –
15 | RAB11FIP5, A0A1B0GTL5 | – | inactive: 0.13 | – | – | inactive: -0.197 | – | inactive: -0.028 | – | inactive: -0.077 | – | inactive: 0.044 | – | – | inactive: 0.142 | – | inactive: -0.197 | inactive: 0.113 | – | inactive: 0.24 | –
16 | RAD17 (UniProt O75943) | inactive: 0.023 | – | inactive: 0.054 | inactive: 0.041 | – | inactive: -0.029 | inactive: -0.041 | inactive: 0.049 | – | inactive: -0.091 | – | inactive: 0.131 | inactive: 0.017 | – | inactive: 0.07 | inactive: -0.214 | inactive: -0.027 | inactive: 0.042 | inactive: -0.004 | inactive: 0.026
17 | RAB39B (UniProt Q96DA2) | inactive: 0.128 | – | – | – | – | – | – | – | – | – | – | inactive: 0.097 | – | – | – | inactive: -1.43 | inactive: 0.426 | – | – | –
18 | RAB11FIP4 isoform 2 (UniProt Q86YS3) | – | – | inactive: -0.245 | inactive: 0.007 | – | – | – | inactive: -0.098 | – | – | – | – | – | – | inactive: -0.304 | – | – | – | – | –
19 | QSOX1 (UniProt O00391) | – | – | – | – | inactive: 0.037 | inactive: -0.068 | inactive: -0.026 | – | – | – | – | – | inactive: 0.097 | – | – | inactive: 0.087 | inactive: -0.011 | inactive: -0.154 | inactive: 0.136 | –

In a second layout: entries from further up.

| Row | Target | log2 fold change (ibrutinib) | log2 fold change [1] | log2 fold change (ralimetinib) | log2 fold change [2] | log2 fold change [3] | log2 fold change [4] | log2 fold change [5] | log2 fold change [6] | log2 fold change [7] | log2 fold change (vemurafenib) | log2 fold change [8] | log2 fold change (barasertib) | log2 fold change [9] | log2 fold change (volasertib) | log2 fold change [10] | log2 fold change [11] | log2 fold change [12] | log2 fold change (saracatinib) | log2 fold change (sotrastaurin) | log2 fold change [13] |
| --- | --- | --- | --- | --- | --- | --- | --- | --- | --- | --- | --- | --- | --- | --- | --- | --- | --- | --- | --- | --- | --- |
| 6 | RAI14 isoform 2 (UniProt Q9P0K7) | inactive: -0.019 | inactive: -0.007 | inactive: -0.011 | inactive: -0.01 | inactive: -0.004 | inactive: -0.024 | inactive: 0.01 | inactive: 0.024 | inactive: 0.001 | inactive: 0.001 | inactive: 0.066 | inactive: 0.061 | inactive: -0.019 | inactive: 0.005 | inactive: 0 | inactive: 0.045 | inactive: -0.011 | inactive: 0.031 | inactive: 0.026 | inactive: 0.017 |
| 7 | RAD51AP1 (UniProt Q96B01) | inactive: 0.067 | inactive: 0.042 | inactive: -0.043 | inactive: -0.059 | inactive: -0.065 | inactive: -0.109 | inactive: 0.029 | inactive: 0.067 | inactive: 0.017 | – | inactive: 0.04 | inactive: -0.074 | inactive: 0.076 | inactive: 0.086 | inactive: -0.118 | inactive: -0.057 | inactive: 0.1 | inactive: 0.07 | inactive: 0.007 | inactive: -0.009 |
